The values below come from PMC12758336.

By UniProt entry, the sequences of proteins in these tests, tags left out. Where a name states a change or a piece, a line headed by the entry shows the natural chain unless it says otherwise. Chains listed by the source or under a name are the forms on record and can include a tag or linker. Residues count along the entry.
ATG14 N-terminal region (residues 1–95) T48E T49E T54E (Q6ZNE5, form named): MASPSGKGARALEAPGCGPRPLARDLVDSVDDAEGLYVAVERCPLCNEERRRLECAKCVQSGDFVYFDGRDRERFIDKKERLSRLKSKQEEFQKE
ATG14 N-terminal region (residues 1–95) S61E S83E (Q6ZNE5, form named): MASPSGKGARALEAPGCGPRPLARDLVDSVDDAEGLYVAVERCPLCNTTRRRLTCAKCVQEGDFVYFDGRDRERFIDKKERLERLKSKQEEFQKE
BECN1 N-terminal BH3-containing region (residues 1–105) (O88597, residues 1-105): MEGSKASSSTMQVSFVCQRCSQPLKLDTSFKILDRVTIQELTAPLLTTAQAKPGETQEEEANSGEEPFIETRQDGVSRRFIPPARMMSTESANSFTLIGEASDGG
BECN1 central CC domain (residues 174–266) (O88597, residues 174-266): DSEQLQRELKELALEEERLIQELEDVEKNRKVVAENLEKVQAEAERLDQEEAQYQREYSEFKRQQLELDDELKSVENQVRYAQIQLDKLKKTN
UniProt Q6PF93: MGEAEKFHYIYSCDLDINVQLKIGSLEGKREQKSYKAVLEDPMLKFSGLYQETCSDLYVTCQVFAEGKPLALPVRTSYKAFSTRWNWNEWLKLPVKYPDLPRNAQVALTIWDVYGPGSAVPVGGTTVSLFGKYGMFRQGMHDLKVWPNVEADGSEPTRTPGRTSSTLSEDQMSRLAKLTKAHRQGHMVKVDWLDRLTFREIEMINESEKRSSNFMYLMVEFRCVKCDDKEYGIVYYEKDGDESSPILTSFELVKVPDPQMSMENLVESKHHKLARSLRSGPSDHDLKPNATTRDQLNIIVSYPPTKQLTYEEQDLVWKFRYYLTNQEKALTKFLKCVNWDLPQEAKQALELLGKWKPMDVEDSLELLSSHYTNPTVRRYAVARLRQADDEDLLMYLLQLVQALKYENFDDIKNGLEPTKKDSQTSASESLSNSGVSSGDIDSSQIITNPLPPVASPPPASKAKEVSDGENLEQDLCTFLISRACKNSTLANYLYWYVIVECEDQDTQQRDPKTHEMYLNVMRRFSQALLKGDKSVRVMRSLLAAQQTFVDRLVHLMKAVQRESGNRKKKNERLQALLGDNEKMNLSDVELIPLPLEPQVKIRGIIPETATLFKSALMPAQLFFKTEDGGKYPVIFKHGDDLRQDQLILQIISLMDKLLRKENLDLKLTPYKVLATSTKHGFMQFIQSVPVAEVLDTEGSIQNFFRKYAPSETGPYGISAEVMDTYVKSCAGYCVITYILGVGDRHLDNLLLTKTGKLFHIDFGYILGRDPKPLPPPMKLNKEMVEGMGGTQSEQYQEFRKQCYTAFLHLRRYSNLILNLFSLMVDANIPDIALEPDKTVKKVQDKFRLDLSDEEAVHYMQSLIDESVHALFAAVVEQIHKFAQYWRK

One experiment has as its target SUMO-tagged NRBF2 (UniProt Q8VCQ3). The experiment is described as follows: pull-down; SUMO-tagged NRBF2 on Ni-NTA agarose beads; full-length proteins added, 3 h at 4°C; 50 mM Tris/HCl, pH 7.4, 150 mM NaCl; SDS gel with Coomassie Brilliant Blue; both purified.
A further experiment deals with NRBF2-Δ-211–287 (UniProt Q8VCQ3). The experiment is described as follows: ITC; iTC200; ATG14 or BECN1 sample in the syringe (40 μl), NRBF2 in the cell; 50 mM Tris, 150 mM NaCl, pH 8.0; 16 injections; both purified. For orientation: Isothermal titration calorimetry measures the heat released or taken up as one component is titrated into another.
Experiment [1] deals with FLAG-tagged ATG14 (N2a nrbf2 knockout cells) (UniProt Q6ZNE5). Description: co-IP; N2a nrbf2 KO cells transfected with FLAG-ATG14 and NRBF2-GFP constructs; Flag M2 beads; a fraction of the beads for western blot.
The target in another experiment is FLAG-NRBF2 E49A (UniProt Q8VCQ3). Description: co-IP; FLAG-tagged NRBF2 constructs transfected into HEK293T; anti-FLAG M2 magnetic beads overnight at 4°C; immunoblot with anti-PIK3R4/VPS15. Background: In western blotting, separated proteins are transferred to a membrane and probed.
The target in the next experiment is FLAG-NRBF2 H54A (UniProt Q8VCQ3). The description is as above.
The target in a further experiment is FLAG-NRBF2 S50A (UniProt Q8VCQ3). The experiment is described as above.
The target in the next experiment is FLAG-NRBF2 T48A (UniProt Q8VCQ3). Described as above.
The target in experiment [2] is FLAG-tagged NRBF2 (wild type) (UniProt Q8VCQ3). Described as above.
For experiment [3] the target is unchanged. The experiment is described as follows: co-IP; competitive co-IP: FLAG-tagged bait and GFP-tagged competitor transiently over-expressed in HEK293T; anti-FLAG M2 magnetic beads; immunoblot for endogenous PIK3R4/VPS15 and PIK3C3/VPS34; Figure 6C also after 100 nM rapamycin (2 h) or EBSS medium (2 h).
Experiment [4] has the same target. Description: co-IP; FLAG- and GFP-tagged NRBF2 constructs co-transfected into HEK293T; anti-FLAG M2 magnetic beads; immunoblot with anti-GFP.

These are yes or no findings as the source states them, for the method shown. For some assays here: In cells and extracts the contact can be indirect. Some binding calls cover weakened binding; strength is not graded here.

For the substance “PIK3C3/VPS34-PIK3R4/VPS15 complex (from UniProt Q8NEB9 1-887; Q99570 1-1358)”, the binding entry in the experiment with SUMO-tagged NRBF2 is reported as “binds”. “ATG14 N-terminal region (residues 1–95) S83E (from UniProt Q6ZNE5 1-95) (domain or fragment)”: in the experiment with NRBF2-Δ-211–287, the binding result is given as “no binding”. With “BECN1 central CC domain (residues 174–266) (from UniProt O88597 174-266) (domain or fragment)”, the binding entry with NRBF2-Δ-211–287 is “no binding”. Regarding “ATG14 C-terminal BARKOR/ATG14 autophagosome targeting sequence (BATS; residues 390–485) (from UniProt Q6ZNE5 390-485) (domain or fragment)”, the binding result with NRBF2-Δ-211–287 is given as “no binding”.

Consider “PIK3C3/VPS34 (N2a cells) (from UniProt Q6PF93 1-887) (enzyme)”, for which the binding entry in experiment [1] is “binds”. Turning to “endogenous PIK3R4/VPS15 (from UniProt Q99570 1-1358)”, the binding result (with FLAG-NRBF2 E49A; with FLAG-NRBF2 H54A; with FLAG-NRBF2 S50A; in the experiment with FLAG-NRBF2 T48A; in experiment [2]; in [3]) was “binds” each time. Turning to “FLAG-tagged NRBF2 (wild type) (from UniProt Q8VCQ3 1-287)”, in [4], the binding entry is given as “binds”.

For the substance “ATG14 BARA-like domain construct (residues 331–400) (from UniProt Q6ZNE5 331-400) (domain or fragment)”, in the experiment with NRBF2-Δ-211–287, the binding result was “no binding”. On to “ATG14 BARA-like domain construct (residues 219–289) (from UniProt Q6ZNE5 219-289) (domain or fragment)”, for which, in the experiment with NRBF2-Δ-211–287, the binding result is listed as “no binding”. In the case of “full-length ATG14 (FLAG-Strep-ATG14) (from UniProt Q6ZNE5 1-492)”, the binding entry with SUMO-tagged NRBF2 was “no binding”.

Regarding “ATG14 N-terminal region (residues 1–95) T48E T49E T54E (from UniProt Q6ZNE5 1-95) (domain or fragment)”, the binding result in the experiment with NRBF2-Δ-211–287 is on record as “no binding”. For the substance “ATG14-1–95 (from UniProt Q6ZNE5 1-95) (domain or fragment)”, the binding result in the experiment with NRBF2-Δ-211–287 is “no binding”. As to “ATG14 CC fragment (residues 88–179) (from UniProt Q6ZNE5 88-179) (domain or fragment)”, the binding entry with NRBF2-Δ-211–287 is on record as “no binding”. For the substance “ATG14 N-terminal region (residues 1–95) S61E (from UniProt Q6ZNE5 1-95) (domain or fragment)”, in the experiment with NRBF2-Δ-211–287, the binding entry is on record as “no binding”. For the substance “ATG14 N-terminal region (residues 1–95) S61E S83E (from UniProt Q6ZNE5 1-95) (domain or fragment)”, the binding result in the experiment with NRBF2-Δ-211–287 is recorded as “no binding”. Take “BECN1 C-terminal BARA domain (residues 243–448) (from UniProt O88597 243-448) (domain or fragment)”: the binding entry with NRBF2-Δ-211–287 was “no binding”. As for “ATG14 CC fragment (residues 144–195) (from UniProt Q6ZNE5 144-195) (domain or fragment)”, in the experiment with NRBF2-Δ-211–287, the binding entry is listed as “no binding”.

Consider “BECN1 N-terminal BH3-containing region (residues 1–105) (from UniProt O88597 1-105) (domain or fragment)”, for which, in the experiment with NRBF2-Δ-211–287, the binding entry is “no binding”.
